Reference: paper PMC6691575
These are yes or no findings as the source states them, for the method shown. Binding seen in cells or lysates may run through a third protein. These calls come from enrichment with a bait or labelling near it, and not all partners need be listed.

Sequences of proteins named here, by UniProt entry; tags and fusion partners are left off.
UniProt P09429: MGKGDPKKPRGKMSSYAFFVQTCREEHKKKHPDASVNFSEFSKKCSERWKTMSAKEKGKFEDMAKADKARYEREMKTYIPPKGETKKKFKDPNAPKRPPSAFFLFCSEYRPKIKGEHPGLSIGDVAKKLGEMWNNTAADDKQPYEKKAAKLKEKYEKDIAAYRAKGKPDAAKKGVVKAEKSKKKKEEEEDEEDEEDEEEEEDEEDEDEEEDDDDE
UniProt P51532: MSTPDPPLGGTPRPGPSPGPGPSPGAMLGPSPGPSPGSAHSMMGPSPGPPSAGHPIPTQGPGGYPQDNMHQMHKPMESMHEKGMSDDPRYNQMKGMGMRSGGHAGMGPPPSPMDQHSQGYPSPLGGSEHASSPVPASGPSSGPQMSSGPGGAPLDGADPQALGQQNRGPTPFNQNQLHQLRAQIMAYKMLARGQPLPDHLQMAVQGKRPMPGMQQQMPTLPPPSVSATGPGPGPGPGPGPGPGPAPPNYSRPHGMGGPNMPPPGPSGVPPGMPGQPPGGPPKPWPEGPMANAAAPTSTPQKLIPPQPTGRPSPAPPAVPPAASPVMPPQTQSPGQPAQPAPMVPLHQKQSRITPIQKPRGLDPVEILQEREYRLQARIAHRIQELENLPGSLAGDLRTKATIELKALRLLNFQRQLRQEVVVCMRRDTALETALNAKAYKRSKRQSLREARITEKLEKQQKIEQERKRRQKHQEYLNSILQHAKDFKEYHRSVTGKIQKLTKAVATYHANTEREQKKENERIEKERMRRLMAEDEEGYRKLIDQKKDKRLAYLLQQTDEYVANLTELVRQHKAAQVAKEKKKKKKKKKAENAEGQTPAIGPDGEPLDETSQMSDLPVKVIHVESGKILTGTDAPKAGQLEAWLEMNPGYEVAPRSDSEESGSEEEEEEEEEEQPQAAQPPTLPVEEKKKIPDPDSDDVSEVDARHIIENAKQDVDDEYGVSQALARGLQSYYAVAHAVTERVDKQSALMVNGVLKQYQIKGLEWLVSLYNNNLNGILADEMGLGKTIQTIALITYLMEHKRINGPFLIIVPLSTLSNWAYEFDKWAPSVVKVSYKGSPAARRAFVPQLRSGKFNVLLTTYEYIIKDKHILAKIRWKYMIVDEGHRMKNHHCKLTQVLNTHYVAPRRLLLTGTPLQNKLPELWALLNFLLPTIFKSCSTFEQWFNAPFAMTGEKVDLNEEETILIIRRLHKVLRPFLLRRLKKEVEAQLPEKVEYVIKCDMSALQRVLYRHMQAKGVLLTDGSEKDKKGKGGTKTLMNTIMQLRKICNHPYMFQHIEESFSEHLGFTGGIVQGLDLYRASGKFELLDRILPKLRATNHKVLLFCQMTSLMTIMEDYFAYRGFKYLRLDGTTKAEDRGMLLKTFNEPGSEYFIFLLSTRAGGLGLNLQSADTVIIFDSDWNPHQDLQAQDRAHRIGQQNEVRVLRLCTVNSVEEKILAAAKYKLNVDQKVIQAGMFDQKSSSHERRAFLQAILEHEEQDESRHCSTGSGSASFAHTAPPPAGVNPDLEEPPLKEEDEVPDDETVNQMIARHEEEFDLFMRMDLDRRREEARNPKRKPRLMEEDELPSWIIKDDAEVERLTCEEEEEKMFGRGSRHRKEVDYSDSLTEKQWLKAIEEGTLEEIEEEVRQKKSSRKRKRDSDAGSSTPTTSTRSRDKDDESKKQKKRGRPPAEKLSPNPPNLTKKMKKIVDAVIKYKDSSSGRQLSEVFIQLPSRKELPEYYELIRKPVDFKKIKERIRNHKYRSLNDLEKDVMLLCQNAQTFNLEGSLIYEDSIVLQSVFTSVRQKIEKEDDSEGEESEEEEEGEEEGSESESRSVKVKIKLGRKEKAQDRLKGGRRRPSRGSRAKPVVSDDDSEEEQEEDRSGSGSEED

Molecular target: high-mobility group box 1 (HMGB1) (human (endogenous in PC-3 and LNCaP)) (UniProt P09429)
Experiment: affinity purification with mass spectrometry; PC-3 cell lysate immunoprecipitated with anti-HMGB1 antibody on protein A/G beads, SDS-PAGE, silver staining, differential band analysed by LC-MS/MS

binding: binds
Substance: Brahma-related gene 1 (BRG1, also known as SMARCA4) (from UniProt P51532 1-1647)
